Assay results

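Luminescence from an EWS-FLI1 target-promoter (NR0B1) reporter, set against a CMV-promoter reporter, two days after silencing single genes in TC32 Ewing sarcoma cells.
Each siRNA was applied at 20 nM.
A z-score of the log NR0B1-over-CMV signal, less the median of siRNAs with the same seed; more negative means a stronger specific loss of the NR0B1 reporter.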

This is part of the screen; most of the strongest results are not listed here.
Sequences are the guide (antisense) strand, without overhang.

* UUCAAUAUCUGAAUUGACG against BPIFC | seed-corrected z-score 1.097
* UCAUCCAAUACCAAUAGGC against IFT46 | seed-corrected z-score -0.1774
* UCAGGUCGAAGGUGGAUUC against HMX1 | seed-corrected z-score -0.1867
* AUUGGGUUCAGGAAUCUAC against MANEAL | seed-corrected z-score 0.2589
* UUUUUAUCUGUCUCUAUCU against NMRK1 | seed-corrected z-score 0.852
* UUGCUAACGAGUUCCAGGC against TRMT11 | seed-corrected z-score -0.8462
* UUGCCUUCUAGAUGUAGCC against LRG1 | seed-corrected z-score -0.4939
* UUUGUCUUUAAUGACGAGG against FBXO18 | seed-corrected z-score -1.439
* UCAGUAGCAGGGUACGUAG against SLC4A3 | seed-corrected z-score -0.01942
* AAUCUUCUCCACAAUGUUC against EIF3K | seed-corrected z-score -1.334
* UCGUCCACAAAAAUGCUGC against ADAMTS18 | seed-corrected z-score -0.405
* UGGUUGUAAAGAGAACUUC against RFX2 | seed-corrected z-score -0.8984
* UCUGAUAUGAGUCCAUCUC against ALLC | seed-corrected z-score 0.4835
* UUUCAAGUCAGUCACAUGA against EFCAB9 | seed-corrected z-score 0.4107
* UGAUUGGACAAUGUACUUU against ADPRH | seed-corrected z-score 0.1298
* UAACUUCUCGGAGUAGUGC against NEK6 | seed-corrected z-score -0.06482
* UUUGGAUAGGCAUAACUCC against GABRA4 | seed-corrected z-score -0.03223
* AAUGAUCUGAGUGACAUGC against CFAP47 | seed-corrected z-score -0.2803
* AGUUAUAUCAAUAGGCUCC against RAD21 | seed-corrected z-score 2.832
* UCUGUACUAACUUCGAAUC against FAM71F1 | seed-corrected z-score 0.1316
* UAUCAAACUUGUCAUCAUC against COQ5 | seed-corrected z-score -0.257
* UUCGUGAUACGAGUACUAC against ACOT12 | seed-corrected z-score 0.7682
* UGUAUGUAGAGCUUCCGCC against ACP7 | seed-corrected z-score -0.2754
* UAUCUGCUGAGGUUUAGGC against ETHE1 | seed-corrected z-score -1.053
* UAAUGUAUAACCUUCUUUA against ZNF436-AS1 | seed-corrected z-score 2.468

Some entries from above, unchanged:

strand,gene,seed-corrected z-score
UCUGUACUAACUUCGAAUC,FAM71F1,0.1316
UUUUUAUCUGUCUCUAUCU,NMRK1,0.852
AAUGAUCUGAGUGACAUGC,CFAP47,-0.2803

The results are deposited in PubChem (AID1159506; NCATS, 2015).